# Results: the supplement of paper PMC8728848
# The list shows a part of the results.
# What was measured:
# Assay in all cases: glycan array binding signal (z-score within array); higher = stronger binding
# Conditions in all cases: glycan notation: IUPAC condensed, linker removed; mutation: D224N
# [1] = target: Neu5Ac(a2-3)Gal6S(b1-4)[Fuc(a1-3)]GlcNAc
# Summary of the method: (§1)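 Glycan array data were curated from 3228 arrays in the Consortium for Functional Glycomics database and kept only where the protein sequence was available. Glycan names were converted to IUPAC-condensed notation, and columns mapping to the same glycan were averaged. The binding signal is a within-array Z-score, averaged across arrays of the same protein sequence at different concentrations or buffers and across linkers. Negative Z-scores can be read as non-binding.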
# [2] = target: Neu5Ac(a2-3)GalNAc
# Summary of the method: as §1
# [3] = target: Neu5Ac(a2-3)GalNAc(b1-4)GlcNAc
# Summary of the method: as §1
# [4] = target: Neu5Ac(a2-3)[GalNAc(b1-4)]Gal(b1-4)Glc
# Summary of the method: as §1
# [5] = target: Neu5Ac(a2-3)[GalNAc(b1-4)]Gal(b1-4)GlcNAc
# Summary of the method: as §1
# [6] = target: Neu5Ac(a2-3)[GalNAc(b1-4)]Gal(b1-4)GlcNAc(b1-3)GalNAc
# Summary of the method: as §1
# [7] = target: Neu5Ac(a2-3)[Neu5Ac(a2-6)]GalNAc
# Summary of the method: as §1
# [8] = target: Neu5Ac(a2-6)Gal
# Summary of the method: as §1
# [9] = target: Neu5Ac(a2-6)Gal(b1-3)GlcNAc(b1-3)[Gal(b1-4)GlcNAc(b1-6)]Gal(b1-4)Glc
# Summary of the method: as §1
# [10] = target: Neu5Ac(a2-6)Gal(b1-4)Glc
# Summary of the method: as §1
# [11] = target: Neu5Ac(a2-6)Gal(b1-4)GlcNAc
# Summary of the method: as §1
# [12] = target: Neu5Ac(a2-6)Gal(b1-4)GlcNAc(b1-2)Man
# Summary of the method: as §1
# [13] = target: Neu5Ac(a2-6)Gal(b1-4)GlcNAc(b1-2)Man(a1-3)Man(b1-4)GlcNAc(b1-4)GlcNAc
# Summary of the method: as §1
# [14] = target: Neu5Ac(a2-6)Gal(b1-4)GlcNAc(b1-2)Man(a1-3)[Gal(b1-4)GlcNAc(b1-2)Man(a1-6)]Man(b1-4)GlcNAc(b1-4)GlcNAc
# Summary of the method: as §1
# [15] = target: Neu5Ac(a2-6)Gal(b1-4)GlcNAc(b1-2)Man(a1-3)[GlcNAc(b1-2)Man(a1-6)]Man(b1-4)GlcNAc(b1-4)GlcNAc
# Summary of the method: as §1
# [16] = target: Neu5Ac(a2-6)Gal(b1-4)GlcNAc(b1-2)Man(a1-3)[GlcNAc(b1-4)][Neu5Ac(a2-6)Gal(b1-4)GlcNAc(b1-2)Man(a1-6)]Man(b1-4)GlcNAc(b1-4)GlcNAc
# Summary of the method: as §1
# [17] = target: Neu5Ac(a2-6)Gal(b1-4)GlcNAc(b1-2)Man(a1-3)[Man(a1-6)]Man(b1-4)GlcNAc(b1-4)GlcNAc
# Summary of the method: as §1
# [18] = target: Neu5Ac(a2-6)Gal(b1-4)GlcNAc(b1-2)Man(a1-3)[Neu5Ac(a2-3)Gal(b1-4)GlcNAc(b1-2)Man(a1-6)]Man(b1-4)GlcNAc(b1-4)GlcNAc
# Summary of the method: as §1
# [19] = target: Neu5Ac(a2-6)Gal(b1-4)GlcNAc(b1-2)Man(a1-3)[Neu5Ac(a2-6)Gal(b1-4)GlcNAc(b1-2)Man(a1-6)]Man(b1-4)GlcNAc(b1-4)GlcNAc
# Summary of the method: as §1
# [20] = target: Neu5Ac(a2-6)Gal(b1-4)GlcNAc(b1-2)Man(a1-3)[Neu5Ac(a2-6)Gal(b1-4)GlcNAc(b1-2)Man(a1-6)]Man(b1-4)GlcNAc(b1-4)[Fuc(a1-6)]GlcNAc
# Summary of the method: as §1
# [21] = target: Neu5Ac(a2-6)Gal(b1-4)GlcNAc(b1-2)Man(a1-6)Man(b1-4)GlcNAc(b1-4)GlcNAc
# Summary of the method: as §1
# [22] = target: Neu5Ac(a2-6)Gal(b1-4)GlcNAc(b1-2)Man(a1-6)[Gal(b1-4)GlcNAc(b1-2)Man(a1-3)]Man(b1-4)GlcNAc(b1-4)GlcNAc
# Summary of the method: as §1
# [23] = target: Neu5Ac(a2-6)Gal(b1-4)GlcNAc(b1-2)Man(a1-6)[GlcNAc(b1-2)Man(a1-3)]Man(b1-4)GlcNAc(b1-4)GlcNAc
# Summary of the method: as §1
# [24] = target: Neu5Ac(a2-6)Gal(b1-4)GlcNAc(b1-2)Man(a1-6)[Man(a1-3)]Man(b1-4)GlcNAc(b1-4)GlcNAc
# Summary of the method: as §1
# [25] = target: Neu5Ac(a2-6)Gal(b1-4)GlcNAc(b1-2)[Neu5Ac(a2-6)Gal(b1-4)GlcNAc(b1-4)]Man(a1-3)[GlcNAc(b1-4)][Neu5Ac(a2-6)Gal(b1-4)GlcNAc(b1-2)[Neu5Ac(a2-6)Gal(b1-4)GlcNAc(b1-6)]Man(a1-6)]Man(b1-4)GlcNAc(b1-4)GlcNAc
# Summary of the method: as §1
# [26] = target: Neu5Ac(a2-6)Gal(b1-4)GlcNAc(b1-2)[Neu5Ac(a2-6)Gal(b1-4)GlcNAc(b1-4)]Man(a1-3)[GlcNAc(b1-4)][Neu5Ac(a2-6)Gal(b1-4)GlcNAc(b1-4)Man(a1-6)]Man(b1-4)GlcNAc(b1-4)GlcNAc
# Summary of the method: as §1
# [27] = target: Neu5Ac(a2-6)Gal(b1-4)GlcNAc(b1-2)[Neu5Ac(a2-6)Gal(b1-4)GlcNAc(b1-6)]Man(a1-6)[Neu5Ac(a2-6)Gal(b1-4)GlcNAc(b1-2)Man(a1-3)][GlcNAc(b1-4)]Man(b1-4)GlcNAc(b1-4)GlcNAc
# Summary of the method: as §1
# [28] = target: Neu5Ac(a2-6)Gal(b1-4)GlcNAc(b1-3)Gal(b1-3)GlcNAc
# Summary of the method: as §1
# [29] = target: Neu5Ac(a2-6)Gal(b1-4)GlcNAc(b1-3)Gal(b1-4)GlcNAc
# Summary of the method: as §1
# [30] = target: Neu5Ac(a2-6)Gal(b1-4)GlcNAc(b1-3)Gal(b1-4)GlcNAc(b1-2)Man(a1-3)[Neu5Ac(a2-6)Gal(b1-4)GlcNAc(b1-3)Gal(b1-4)GlcNAc(b1-2)Man(a1-6)]GalNAc
# Summary of the method: as §1
# [31] = target: Neu5Ac(a2-6)Gal(b1-4)GlcNAc(b1-3)Gal(b1-4)GlcNAc(b1-3)Gal(b1-4)GlcNAc
# Summary of the method: as §1
# [32] = target: Neu5Ac(a2-6)Gal(b1-4)GlcNAc(b1-3)Gal(b1-4)GlcNAc(b1-3)Gal(b1-4)GlcNAc(b1-2)Man(a1-3)[Neu5Ac(a2-6)Gal(b1-4)GlcNAc(b1-3)Gal(b1-4)GlcNAc(b1-3)Gal(b1-4)GlcNAc(b1-2)Man(a1-6)]GalNAc
# Summary of the method: as §1
# [33] = target: Neu5Ac(a2-6)Gal(b1-4)GlcNAc(b1-3)Gal(b1-4)GlcNAc(b1-3)GalNAc
# Summary of the method: as §1
# [34] = target: Neu5Ac(a2-6)Gal(b1-4)GlcNAc(b1-3)Gal(b1-4)GlcNAc(b1-3)[Neu5Ac(a2-6)Gal(b1-4)GlcNAc(b1-3)Gal(b1-4)GlcNAc(b1-6)]GalNAc
# Summary of the method: as §1
# [35] = target: Neu5Ac(a2-6)Gal(b1-4)GlcNAc(b1-3)Gal(b1-4)GlcNAc(b1-6)[Gal(b1-3)]GalNAc
# Summary of the method: as §1
# [36] = target: Neu5Ac(a2-6)Gal(b1-4)GlcNAc(b1-3)Gal(b1-4)[Fuc(a1-3)]GlcNAc(b1-3)Gal(b1-4)[Fuc(a1-3)]GlcNAc
# Summary of the method: as §1
# [37] = target: Neu5Ac(a2-6)Gal(b1-4)GlcNAc(b1-3)GalNAc
# Summary of the method: as §1
binder,measurement,setting,value
a L Fucosidase (Thermotoga maritima) (protein) MASMKPRYKPDWESLREHTVPKWFDKAKFGIFIHWGIYSVPGWATPTGELGKVPMDAWFFQNPYAEWYENSLRIKESPTWEYHVKTYGENFEYEKFADLFTAEKWDPQEWADLFKKAGAKYVIPTTKHHDGFCLWGTKYTDFNSVKRGPKRDLVGDLAKAVREAGLRFGVYYSGGLDWRFTTEPIRYPEDLSYIRPNTYEYADYAYKQVMELVDLYLPDVLWNNMGWPEKGKEDLKYLFAYYYNKHPEGSVNDRWGVPHWDFKTAEYHVNYPGDLPGYKWEFTRGIGLSFGYNRNEGPEHMLSVEQLVYTLVDVVSKGGNLLLNVGPKGDGTIPDLQKERLLGLGEWLRKYGDAIYGTSVWERCCAKTEDGTEIRFTRKCNRIFVIFLGIPTGEKIVIEDLNLSAGTVRHFLTGERLSFKNVGKNLEITVPKKLLETDSITLVLEAVEE,glycan array binding signal (z-score),[1],-0.732
same,glycan array binding signal (z-score),[2],-0.501
same,glycan array binding signal (z-score),[3],0.543
same,glycan array binding signal (z-score),[4],-0.787
same,glycan array binding signal (z-score),[5],-0.393
same,glycan array binding signal (z-score),[6],0.719
same,glycan array binding signal (z-score),[7],-0.164
same,glycan array binding signal (z-score),[8],-0.576
same,glycan array binding signal (z-score),[9],-0.45
same,glycan array binding signal (z-score),[10],0.312
same,glycan array binding signal (z-score),[11],0.226
same,glycan array binding signal (z-score),[12],0.122
same,glycan array binding signal (z-score),[13],1.99
same,glycan array binding signal (z-score),[14],0.382
same,glycan array binding signal (z-score),[15],0.195
same,glycan array binding signal (z-score),[16],0.496
same,glycan array binding signal (z-score),[17],0.075
same,glycan array binding signal (z-score),[18],-0.737
same,glycan array binding signal (z-score),[19],0.562
same,glycan array binding signal (z-score),[20],1.27
same,glycan array binding signal (z-score),[21],-0.036
same,glycan array binding signal (z-score),[22],-0.143
same,glycan array binding signal (z-score),[23],-0.372
same,glycan array binding signal (z-score),[24],0.081
same,glycan array binding signal (z-score),[25],0.25
same,glycan array binding signal (z-score),[26],-0.195
same,glycan array binding signal (z-score),[27],0.657
same,glycan array binding signal (z-score),[28],-0.308
same,glycan array binding signal (z-score),[29],-1.06
same,glycan array binding signal (z-score),[30],2.02
same,glycan array binding signal (z-score),[31],0.676
same,glycan array binding signal (z-score),[32],10.5
same,glycan array binding signal (z-score),[33],-1.27
same,glycan array binding signal (z-score),[34],1.43
same,glycan array binding signal (z-score),[35],0.088
same,glycan array binding signal (z-score),[36],-0.035
same,glycan array binding signal (z-score),[37],1.83

# 2 entries picked at random from the list so far:
binder,measurement,setting,value
a L Fucosidase (Thermotoga maritima) (protein) MASMKPRYKPDWESLREHTVPKWFDKAKFGIFIHWGIYSVPGWATPTGELGKVPMDAWFFQNPYAEWYENSLRIKESPTWEYHVKTYGENFEYEKFADLFTAEKWDPQEWADLFKKAGAKYVIPTTKHHDGFCLWGTKYTDFNSVKRGPKRDLVGDLAKAVREAGLRFGVYYSGGLDWRFTTEPIRYPEDLSYIRPNTYEYADYAYKQVMELVDLYLPDVLWNNMGWPEKGKEDLKYLFAYYYNKHPEGSVNDRWGVPHWDFKTAEYHVNYPGDLPGYKWEFTRGIGLSFGYNRNEGPEHMLSVEQLVYTLVDVVSKGGNLLLNVGPKGDGTIPDLQKERLLGLGEWLRKYGDAIYGTSVWERCCAKTEDGTEIRFTRKCNRIFVIFLGIPTGEKIVIEDLNLSAGTVRHFLTGERLSFKNVGKNLEITVPKKLLETDSITLVLEAVEE,glycan array binding signal (z-score),[28],-0.308
same,glycan array binding signal (z-score),[15],0.195
